The values below come from publication PMC7819943, “Rice protein-binding microarrays: a tool to detect cis-acting elements near promoter regions in rice”.

By UniProt entry, the sequences of proteins in these tests, tags left out.
UniProt Q0JBA9, entry or part of it: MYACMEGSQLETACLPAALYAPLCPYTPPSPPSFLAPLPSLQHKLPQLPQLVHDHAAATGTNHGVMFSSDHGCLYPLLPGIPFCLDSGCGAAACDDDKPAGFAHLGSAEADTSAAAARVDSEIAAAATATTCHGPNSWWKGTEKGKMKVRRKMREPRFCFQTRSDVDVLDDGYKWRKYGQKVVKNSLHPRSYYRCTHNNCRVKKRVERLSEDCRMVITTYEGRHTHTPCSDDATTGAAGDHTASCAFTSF

This is one part of the list.

This test addresses OsWRKY34 (Oryza sativa, UniProt Q0JBA9 1-250). Nature of the test: protein-binding microarray (RPBM); PBS, 2% BSA, 51.3 ng/ul salmon testes DNA, 50 uM zinc acetate, 200 nM TF, 25 C, 1 h; high values mean tight binding. As to conditions: protein: recombinant; tags: N-terminal polyhistidine and DsRed monomer fusion (pET32a); label: CyDye5-dUTP incorporated in the synthesized complementary strand; 3' TTTTT single-stranded linker to array surface; dsDNA, one strand shown. In short, it runs like this:
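Binding signal is reported as fluorescence intensity per feature (arbitrary units) from an Axon 4000B scanner. Incubation used 200 nM of each Ni–NTA-purified, N-terminally polyhistidine- and DsRed-fused transcription factor from E. coli BL21-CodonPlus on a double-stranded custom Agilent array for 1 h at 25 °C, with 50 µM zinc acetate in the buffer, followed by washing.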
For “TCCTCCCGCACCTCGGCGTACCTCACCCGCCTCCGGACGACGGAGTCACCTAGTGCAG”, the binding signal was 9350 fluorescence intensity (a.u.).
As for “CACACCTCCCACGGTCCGGTCCTCACTCCTCCCGCGCGCGCGGAGTCACCTAGTGCAG”, the binding signal is 9880 fluorescence intensity (a.u.).
As to “TACGCCTCATAGCCGCATCACCCCGATCCCCTCCGTCATCCGGAGTCACCTAGTGCAG”, the binding signal is 8220 fluorescence intensity (a.u.).
On to “CTTTTACCAGTTGTATATTGAACTTCTGCTATGAAACTTGCGGAGTCACCTAGTGCAG”, for which the binding signal is 8150 fluorescence intensity (a.u.).
As for “ACTCTCATCCATACATACATGTCATCTAATCTATATATTCCGGAGTCACCTAGTGCAG”, the binding signal is 12200 fluorescence intensity (a.u.).
On to “GGAATTGCCTCGTTCCATATCTGCTTTATCTAGCTTGCTACGGAGTCACCTAGTGCAG”, for which the binding signal is 8880 fluorescence intensity (a.u.).
Take “GCTACCGCCCGCGCGTCCCTCCACCCCACCCACGCGGTTTCGGAGTCACCTAGTGCAG”: the binding signal is 8110 fluorescence intensity (a.u.).
As to “GACGCCGTTGATTTTTTCTCACATGTTTGACCATTCGTCTCGGAGTCACCTAGTGCAG”, the binding signal was 18000 fluorescence intensity (a.u.).
Take “CCAAATGCCCTTCTTAGGTTTGTGCTTAATAATTTGCCACCGGAGTCACCTAGTGCAG”: the binding signal was 8300 fluorescence intensity (a.u.).
With “CCACCCACACCGCCTCGCGTCCCCATCCATCACCGTCCATCGGAGTCACCTAGTGCAG” the figure was 10000 fluorescence intensity (a.u.); with “CACCACAGCTTCCCGTTCCTGCTCCCGGCGCGGCGAACCACGGAGTCACCTAGTGCAG”, 8160 fluorescence intensity (a.u.); with “CCTCCACGTGATTTCCTTTTTTGGCACCATATTACTTTCCCGGAGTCACCTAGTGCAG”, 11200 fluorescence intensity (a.u.).
As to “GTACCAGCGACAGCTTTTCCCTTCCATTTCTTTTCTCCTTCGGAGTCACCTAGTGCAG”, the binding signal was 10300 fluorescence intensity (a.u.).
Regarding “GGGGAGGTGAGGGGCAGCCAGGGAGGCGGGGAGTTGCTGCCGGAGTCACCTAGTGCAG”, the binding signal was 11300 fluorescence intensity (a.u.).
Consider “GATATCCTTACCGTTTCCGAGTATACGTTCCGATTCCATTCGGAGTCACCTAGTGCAG”, for which the binding signal was 8870 fluorescence intensity (a.u.).
For “TCTCCATTGCTTCATCTTGATCGGTCATGATACTCTTTGGCGGAGTCACCTAGTGCAG”, the binding signal is 9240 fluorescence intensity (a.u.).
For “GCCTGTTTCTCCTTCGGCTGATGATATCTGTGCTGTTTTTCGGAGTCACCTAGTGCAG”, the binding signal was 8550 fluorescence intensity (a.u.).
As to “TTTTACTTTCCTTTTTTTTTTGGCCATTAGAAAAAGTGCACGGAGTCACCTAGTGCAG”, the binding signal is 8960 fluorescence intensity (a.u.).
For the sequence “TGTGGGTGGTGGCTCTAGGGTTTAACAAGACGTCGTCTGTCGGAGTCACCTAGTGCAG”, the binding signal is 8130 fluorescence intensity (a.u.).
Turning to “CTATTGTCGTGCGTGTGACCACTATTAAGCAGCATGCCGACGGAGTCACCTAGTGCAG”, the binding signal is 8280 fluorescence intensity (a.u.).
Consider “CTCGTTATTTTCTTCTTGATCCATCAGTGTCTAGAATATTCGGAGTCACCTAGTGCAG”, for which the binding signal was 8430 fluorescence intensity (a.u.).
For the sequence “ACTACTCTCGTACTGTACTACTGTGGCGTGGCTATCTACTCGGAGTCACCTAGTGCAG”, the binding signal was 8530 fluorescence intensity (a.u.).
With “ATTACAGTAATAATTCCCGCGTTTTTAATTCTTCTTCTTTCGGAGTCACCTAGTGCAG” the figure was 9480 fluorescence intensity (a.u.); with “ACAGAGGGAGTCATTTTGTGTTGTTTTAATAGTTAGAGGGCGGAGTCACCTAGTGCAG”, 8200 fluorescence intensity (a.u.); with “TTTGTGTAGTGTATCATATTTGGAGTTCTGCTGTTCCACTCGGAGTCACCTAGTGCAG”, 11200 fluorescence intensity (a.u.).
On to “CTCCTGTCTGCTAGACACGATTCTGCACCATATGTACATCCGGAGTCACCTAGTGCAG”, for which the binding signal is 9670 fluorescence intensity (a.u.).
With “CTCCGCCGCGCTCGTGGGGTTTAGGGTTTTAAGGTGGAGGCGGAGTCACCTAGTGCAG”, the binding signal is 8130 fluorescence intensity (a.u.).
Regarding “GGAATCGAGGTGGACTTTTTCCTATTTTTGGCCCAGAACTCGGAGTCACCTAGTGCAG”, the binding signal was 11500 fluorescence intensity (a.u.).
With “AACTTTCTCAACTTCTACTCTTTCGTTTTTCATACGCACGCGGAGTCACCTAGTGCAG” the figure was 11000 fluorescence intensity (a.u.).
For “CCGTCTCTTTTCAGATTATTCATTGGATTATGTGCTATATCGGAGTCACCTAGTGCAG”, the binding signal is 8170 fluorescence intensity (a.u.).
For the sequence “GCAATCTGCGCGGGCCACTATGCTTGTTATAATCTATTTCCGGAGTCACCTAGTGCAG”, the binding signal is 8200 fluorescence intensity (a.u.).
With “ACCCGTTGTTTTTGTTTTACCTGTGCTACGGTCAAAATGTCGGAGTCACCTAGTGCAG” the figure was 10300 fluorescence intensity (a.u.); with “ACCAGGGGAGGGGACAGCACACACTATCCATTCCAGTGCCCGGAGTCACCTAGTGCAG”, 12800 fluorescence intensity (a.u.).
On to “ATATTGCCCATCACCACCACCCACTGCAACCGGCTGTTAACGGAGTCACCTAGTGCAG”, for which the binding signal is 8370 fluorescence intensity (a.u.).
As for “CTAGTTCACCTGTCTTTATCAGTTTGCGTTGTGTCATCCGCGGAGTCACCTAGTGCAG”, the binding signal is 11700 fluorescence intensity (a.u.).
Turning to “ACCGTTGGTTTCCATCTCTTCGAGCGTGTGTTAGGGGCATCGGAGTCACCTAGTGCAG”, the binding signal was 9650 fluorescence intensity (a.u.).
As to “CGTTTTCCGCGCTCACACTTTTCAAACTACTAAACGGTGTCGGAGTCACCTAGTGCAG”, the binding signal is 9380 fluorescence intensity (a.u.).
Regarding “TCCCCGCGGGCATGCCCGTTGCTGCGGGCGCAGCTCAATTCGGAGTCACCTAGTGCAG”, the binding signal is 8280 fluorescence intensity (a.u.).
Turning to “GGTTCGTTCGTTCCTCCCGCGGCGACGGGGTGGGGCACACCGGAGTCACCTAGTGCAG”, the binding signal is 8930 fluorescence intensity (a.u.).
Take “TCCTTGACAGTTCTTGCATTGTATGTGTCAGCTCATGTGTCGGAGTCACCTAGTGCAG”: the binding signal was 11600 fluorescence intensity (a.u.).
In the case of “GAGTTTTTGTTTATATTATTTGATCACTCGTCTTATTTAACGGAGTCACCTAGTGCAG”, the binding signal is 10500 fluorescence intensity (a.u.).
On to “TGGGAGCTTTGCTTGGGGTGTGTGTGTGTTTGGGTGGTGCCGGAGTCACCTAGTGCAG”, for which the binding signal was 10900 fluorescence intensity (a.u.).
